In PubChem BioAssay AID590 (National Center for Advancing Translational Sciences (NCATS), 2007):
Among all 59,000 compounds or so, about 6,500 (11%) were called active. This list was built around the results that the source calls inconclusive (neither active nor inactive); the mix of calls is not that of the screen. Rule as the data show it: active = max dye-equivalent concentration above about 10 nM; inconclusive = mostly about 1.1 nM to 9.6 nM; inactive = weaker than that.

Test: qHTS Assay for Spectroscopic Profiling in A350 Spectral Region
Conditions: Compound autofluorescence, 340/450 nm, Alexa 350 dye-equivalents; stronger effect = higher value
For CCCCN(CC)CCCNC(=O)CC1Nc2ccccc2NC1=O (stereo unspecified), the max dye-equivalent concentration was active: 69 nM. With Cc1onc(-c2ccccc2)c1C(=O)n1cccn1 the max dye-equivalent concentration was inconclusive: 1.3 nM. With CCOC(=O)Cn1c(=O)c2c(nc3n2CCN3Cc2ccccc2)n(C)c1=O the max dye-equivalent concentration was inconclusive: 1.3 nM. With CC(=O)Nc1c(C(=O)N2CCN(c3ncccn3)CC2)cnn1-c1ccccc1Cl the max dye-equivalent concentration was “inactive”. In the case of CCOC(=O)c1sc2nc(CC(=O)OC)nc(NCc3ccco3)c2c1C, the max dye-equivalent concentration was inconclusive: 1.5 nM. With CCOc1ccc2nc(S(N)(=O)=O)sc2c1 the max dye-equivalent concentration was inconclusive: 1.6 nM. With COc1ccccc1OCc1nc2ccccc2[nH]1 the max dye-equivalent concentration was inconclusive: 3.6 nM. With COCCn1c(=O)c(C)nc2cncnc21 the max dye-equivalent concentration was inconclusive: 1.7 nM. For C/C(NC1CCCC1)=C(/C#N)C(N)=O, the max dye-equivalent concentration was inconclusive: 7.6 nM. With CCC(C)NC(=O)C1CCN(c2nc(C)cc(C)n2)CC1 (stereo unspecified) the max dye-equivalent concentration was “inactive”. With CC1(C)Cc2[nH]c(=S)c(C#N)cc2CO1 the max dye-equivalent concentration was inconclusive: 2.5 nM. With COc1ccc(-n2c(=O)c(-c3cc(F)cc(F)c3)nc3cnc(N4CCNCC4)nc32)cc1 the max dye-equivalent concentration was inconclusive: 1.3 nM. In the case of COc1cc2cc(C(c3nnnn3C3CCCC3)N3CCCCC3)c(=O)[nH]c2cc1OC (stereo unspecified), the max dye-equivalent concentration was active: 360 nM. With CN=c1scc(C)n1/N=C/c1ccc(O)cc1 the max dye-equivalent concentration was inconclusive: 4.5 nM. For CS(=O)(=O)N(CC(=O)NCc1ccco1)c1ccc2c(c1)OCO2, the max dye-equivalent concentration was active: 29 nM. In the case of COCCn1c(=O)c(-c2ccccc2)nc2cnc(N(C)C)nc21, the max dye-equivalent concentration was active: 73 nM. For Nc1nc(N)c(N=Nc2ccc(C(=O)O)c(O)c2)c(N)n1, the max dye-equivalent concentration was inconclusive: 3.5 nM. In the case of COc1ccc(-c2nc3cnc(N4CCOCC4)nc3n(C3CC3)c2=O)cc1, the max dye-equivalent concentration was active: 35 nM. With O=C(O)c1ccccc1NS(=O)(=O)c1ccc2c3c(cccc13)C(=O)N2 the max dye-equivalent concentration was inconclusive: 3.4 nM. For Cc1ccc(NC(=O)COC(=O)c2ccn(C)n2)cc1, the max dye-equivalent concentration was “inactive”. For O=S1(=O)CCN=C2SC3=C(CCCC3)N21, the max dye-equivalent concentration was “inactive”. With O=c1c2c([nH]c3ccc(Br)cc13)CCCC2 the max dye-equivalent concentration was inconclusive: 1.2 nM. In the case of COc1cc(C2c3c(n[nH]c3C)C(=O)N2c2ccc(C)cc2)ccc1O (stereo unspecified), the max dye-equivalent concentration was inconclusive: 6.1 nM. With O=C(O)CSc1nnc(CNc2cccc(C(F)(F)F)c2)n1Cc1ccco1 the max dye-equivalent concentration was inconclusive: 4.8 nM. For O=C1NC(=S)S/C1=C1\Sc2ccccc2N1CCCS(=O)(=O)O, the max dye-equivalent concentration was inconclusive: 3.2 nM. For Cc1noc(C)c1CSc1nc2[nH]ncc2c(=O)n1-c1ccccc1, the max dye-equivalent concentration was inconclusive: 1.3 nM. With c1ccc2c(c1)ncn2CCC1CCCCC1 the max dye-equivalent concentration was “inactive”. For NC(=O)CSc1nc(N)c2c3c(sc2n1)CCCCC3, the max dye-equivalent concentration was “inactive”. In the case of O=C1c2oc3ccc(F)cc3c(=O)c2C(c2ccccc2)N1CC1CCCO1 (stereo unspecified), the max dye-equivalent concentration was inconclusive: 1.4 nM. For CCOC(=O)C(C)n1cnc2c(nnn2-c2ccc(OC)cc2)c1=O (stereo unspecified), the max dye-equivalent concentration was inconclusive: 1.1 nM. With Cc1ccc(-c2nn(C)c(=O)c3ccccc23)cc1S(=O)(=O)NCCO the max dye-equivalent concentration was inconclusive: 1.7 nM. For Cc1ccc2c(CN3CCN(CCO)CC3)cc(=O)oc2c1, the max dye-equivalent concentration was inconclusive: 8.5 nM. With O=C(NCc1ccccn1)c1ccc(Cl)cc1Cl the max dye-equivalent concentration was active: 12 nM. For COc1ccc(CCNc2oc(-c3ccco3)nc2C#N)cc1, the max dye-equivalent concentration was inconclusive: 3.3 nM. For COc1ncc2nc(-c3cc(F)cc(F)c3)c(=O)n(Cc3cccs3)c2n1, the max dye-equivalent concentration was inconclusive: 4.2 nM. For COc1ncnc2c1oc1nc(CC(C)C)c3c(c12)CCCC3, the max dye-equivalent concentration was inconclusive: 1.2 nM. In the case of CC(C)(CO)N1CCN(C(=S)Nc2ccccc2)CC1, the max dye-equivalent concentration was inconclusive: 2.1 nM. In the case of CCOC(=O)C1=C(C)N=C(/N=C/N(C)C)SC1c1ccccc1 (stereo unspecified), the max dye-equivalent concentration was “inactive”. For CCN1CCCC1CNC(=O)c1nn(-c2ccc(C)cc2)c(=O)c2c1c1ccccc1n2C (stereo unspecified), the max dye-equivalent concentration was inconclusive: 4.3 nM. For COc1cccc(C(=O)Nc2ccccc2N2CCCC2)c1, the max dye-equivalent concentration was inconclusive: 2.5 nM. For CC(C)C(NS(=O)(=O)c1cccc2nsnc12)C(=O)N1CCc2ccccc2C1 (stereo unspecified), the max dye-equivalent concentration was “inactive”. For COc1cc(C(=O)Nc2cccc3ncccc23)cc(OC)c1OC, the max dye-equivalent concentration was active: 570 nM. In the case of O=c1c(-c2cccs2)nc2cnc(N3CCNCC3)nc2n1CCc1ccccc1, the max dye-equivalent concentration was active: 11 nM. For Nc1c(S(=O)(=O)c2ccccc2)nnn1-c1ccccc1, the max dye-equivalent concentration was inconclusive: 4.5 nM. In the case of COc1ccc2[nH]c(C(=O)O)c(NS(=O)(=O)c3ccc(OC)c(OC)c3)c2c1, the max dye-equivalent concentration was “inactive”. In the case of Nc1c(C(=O)NC2CCCC2)sc2nc(-c3cccs3)ccc12, the max dye-equivalent concentration was inconclusive: 2.3 nM. For C/C(=N\n1nnnc1Nc1ccccc1)c1ccc(N)cc1, the max dye-equivalent concentration was “inactive”. For O=C(O)Cc1cc(Cl)ccc1O, the max dye-equivalent concentration was “inactive”. For CC1(C)Cc2c(sc3c2c(=N)n(Cc2ccco2)c(=O)n3CC(=O)Nc2cccc(Cl)c2)CO1, the max dye-equivalent concentration was “inactive”. In the case of N#C/C(=C\c1ccc(O)c(O)c1)C(=O)NCCCc1ccccc1, the max dye-equivalent concentration was inconclusive: 6.5 nM and the outcome was “inactive”. For O=C(C/C(=N/O)c1ccccc1O)C(F)F, the max dye-equivalent concentration was inconclusive: 6.3 nM. With O=S(=O)(c1ccccc1)N1CCC[C@@]2(CCN(c3ccncc3)C2)C1 the max dye-equivalent concentration was “inactive”. For Cn1cc(C(=O)c2ccc(Cl)cc2)cc1-c1nc2ccccc2n1C, the max dye-equivalent concentration was inconclusive: 8.2 nM. In the case of N#Cc1cccc(-c2nc3cnc(Oc4cccc(Cl)c4)nc3n(C3CC3)c2=O)c1, the max dye-equivalent concentration was inconclusive: 1.3 nM. In the case of CCCOC(=O)C1=C(C)NC2=C(C(=O)C(C(=O)OC)C(C)C2)C1c1ccc(N(CC)CC)cc1 (stereo unspecified), the max dye-equivalent concentration was inconclusive: 5 nM. In the case of NC1=NC(c2ccc(Cl)cc2)n2c(nc3ccccc32)N1 (stereo unspecified), the max dye-equivalent concentration was “inactive”. In the case of COC(=O)c1cc(C(=O)OC)cc(S(=O)(=O)Nc2ccc(Cl)c(N)c2)c1, the max dye-equivalent concentration was “inactive”. In the case of COc1ccc(C(=O)c2ccc(N3CCN(C4CC(=O)NC4=O)CC3)cc2)cc1F (stereo unspecified), the max dye-equivalent concentration was “inactive”. For O=C(CC1SCCNC1=O)Nc1cccc(C(F)(F)F)c1 (stereo unspecified), the max dye-equivalent concentration was inconclusive: 1.3 nM. With COc1cccc(C2C(C(=O)c3sc(C)nc3C)=C(O)C(=O)N2CCN(C)C)c1OC (stereo unspecified) the max dye-equivalent concentration was inconclusive: 1.6 nM.
